Measured values published in publication PMC6933522.

The chains behind the UniProt entries cited, without tags or fusion partners. Where a name states a change or a piece, a line headed by the entry shows the natural chain unless it says otherwise.
UniProt Q9Y696: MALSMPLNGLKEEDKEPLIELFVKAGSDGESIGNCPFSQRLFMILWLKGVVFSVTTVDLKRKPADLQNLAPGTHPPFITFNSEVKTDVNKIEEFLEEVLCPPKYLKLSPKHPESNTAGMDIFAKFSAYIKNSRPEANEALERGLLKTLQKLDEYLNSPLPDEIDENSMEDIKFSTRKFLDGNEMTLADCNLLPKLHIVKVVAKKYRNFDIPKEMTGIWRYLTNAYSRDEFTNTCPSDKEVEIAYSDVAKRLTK
UniProt Q01650: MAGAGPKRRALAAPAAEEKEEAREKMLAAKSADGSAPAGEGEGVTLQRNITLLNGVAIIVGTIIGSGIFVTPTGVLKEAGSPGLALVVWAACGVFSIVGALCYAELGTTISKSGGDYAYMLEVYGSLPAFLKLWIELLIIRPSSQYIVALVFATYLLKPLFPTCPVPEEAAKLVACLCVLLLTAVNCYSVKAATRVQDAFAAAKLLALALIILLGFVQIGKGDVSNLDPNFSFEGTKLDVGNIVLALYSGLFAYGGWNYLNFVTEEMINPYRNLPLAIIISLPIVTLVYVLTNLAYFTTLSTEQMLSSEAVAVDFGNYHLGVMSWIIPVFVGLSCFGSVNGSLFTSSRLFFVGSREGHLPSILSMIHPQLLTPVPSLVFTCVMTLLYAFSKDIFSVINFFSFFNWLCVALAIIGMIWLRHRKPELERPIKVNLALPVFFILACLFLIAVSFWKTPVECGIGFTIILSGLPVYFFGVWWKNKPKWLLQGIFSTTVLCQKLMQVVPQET
UniProt P61586: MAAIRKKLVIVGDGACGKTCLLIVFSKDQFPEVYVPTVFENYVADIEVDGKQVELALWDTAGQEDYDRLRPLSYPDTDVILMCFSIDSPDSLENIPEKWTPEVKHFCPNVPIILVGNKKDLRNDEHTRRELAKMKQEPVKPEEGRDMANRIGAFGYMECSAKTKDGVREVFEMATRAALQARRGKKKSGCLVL
UniProt Q8WUM4: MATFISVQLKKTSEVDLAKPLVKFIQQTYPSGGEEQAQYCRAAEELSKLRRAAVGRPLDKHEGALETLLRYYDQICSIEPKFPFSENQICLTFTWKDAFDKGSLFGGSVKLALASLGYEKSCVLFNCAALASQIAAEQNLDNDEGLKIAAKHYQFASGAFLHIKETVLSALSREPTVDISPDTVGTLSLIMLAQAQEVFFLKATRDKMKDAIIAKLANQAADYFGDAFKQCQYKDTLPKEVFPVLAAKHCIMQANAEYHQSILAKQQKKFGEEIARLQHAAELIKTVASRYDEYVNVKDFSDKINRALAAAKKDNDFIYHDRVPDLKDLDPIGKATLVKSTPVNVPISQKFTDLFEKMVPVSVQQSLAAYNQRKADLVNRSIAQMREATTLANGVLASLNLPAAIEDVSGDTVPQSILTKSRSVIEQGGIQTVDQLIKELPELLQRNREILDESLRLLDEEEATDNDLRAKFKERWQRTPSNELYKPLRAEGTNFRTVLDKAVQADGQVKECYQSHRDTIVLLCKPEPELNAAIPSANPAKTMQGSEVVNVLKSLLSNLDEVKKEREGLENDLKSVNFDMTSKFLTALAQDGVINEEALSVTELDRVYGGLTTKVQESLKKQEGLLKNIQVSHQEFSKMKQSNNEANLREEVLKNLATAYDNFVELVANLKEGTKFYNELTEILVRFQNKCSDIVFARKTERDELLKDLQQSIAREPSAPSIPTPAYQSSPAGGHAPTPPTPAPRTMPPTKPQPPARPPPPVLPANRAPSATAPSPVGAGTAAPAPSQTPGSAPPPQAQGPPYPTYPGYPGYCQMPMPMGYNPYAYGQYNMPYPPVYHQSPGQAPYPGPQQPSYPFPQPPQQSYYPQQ
UniProt P52732: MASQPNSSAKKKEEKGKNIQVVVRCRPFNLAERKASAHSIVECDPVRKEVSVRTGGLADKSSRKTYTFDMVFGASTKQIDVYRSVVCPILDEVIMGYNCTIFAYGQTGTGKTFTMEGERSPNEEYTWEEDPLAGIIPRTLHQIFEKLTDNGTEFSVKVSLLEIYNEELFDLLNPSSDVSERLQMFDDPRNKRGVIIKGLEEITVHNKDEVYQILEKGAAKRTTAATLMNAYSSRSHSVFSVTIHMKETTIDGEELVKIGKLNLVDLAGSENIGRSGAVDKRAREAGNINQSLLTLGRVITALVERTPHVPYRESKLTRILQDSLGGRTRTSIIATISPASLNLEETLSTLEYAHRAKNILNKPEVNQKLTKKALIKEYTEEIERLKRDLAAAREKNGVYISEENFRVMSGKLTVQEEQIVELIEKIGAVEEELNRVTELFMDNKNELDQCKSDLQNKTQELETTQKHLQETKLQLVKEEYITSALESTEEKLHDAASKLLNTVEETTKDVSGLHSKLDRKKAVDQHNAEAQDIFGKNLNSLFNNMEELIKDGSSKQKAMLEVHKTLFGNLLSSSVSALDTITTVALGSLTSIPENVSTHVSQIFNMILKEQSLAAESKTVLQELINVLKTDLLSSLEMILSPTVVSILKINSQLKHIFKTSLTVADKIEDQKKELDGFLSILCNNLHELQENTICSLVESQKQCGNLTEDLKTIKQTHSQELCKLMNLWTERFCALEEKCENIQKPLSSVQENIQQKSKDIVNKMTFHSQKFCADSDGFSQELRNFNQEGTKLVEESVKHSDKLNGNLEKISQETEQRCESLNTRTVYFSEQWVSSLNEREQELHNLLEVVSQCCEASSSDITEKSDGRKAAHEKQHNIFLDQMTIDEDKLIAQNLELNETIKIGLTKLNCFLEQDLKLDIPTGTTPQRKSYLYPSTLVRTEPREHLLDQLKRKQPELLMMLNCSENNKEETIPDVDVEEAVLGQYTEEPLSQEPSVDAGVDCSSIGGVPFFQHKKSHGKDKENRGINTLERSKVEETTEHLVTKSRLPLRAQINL
UniProt P15311: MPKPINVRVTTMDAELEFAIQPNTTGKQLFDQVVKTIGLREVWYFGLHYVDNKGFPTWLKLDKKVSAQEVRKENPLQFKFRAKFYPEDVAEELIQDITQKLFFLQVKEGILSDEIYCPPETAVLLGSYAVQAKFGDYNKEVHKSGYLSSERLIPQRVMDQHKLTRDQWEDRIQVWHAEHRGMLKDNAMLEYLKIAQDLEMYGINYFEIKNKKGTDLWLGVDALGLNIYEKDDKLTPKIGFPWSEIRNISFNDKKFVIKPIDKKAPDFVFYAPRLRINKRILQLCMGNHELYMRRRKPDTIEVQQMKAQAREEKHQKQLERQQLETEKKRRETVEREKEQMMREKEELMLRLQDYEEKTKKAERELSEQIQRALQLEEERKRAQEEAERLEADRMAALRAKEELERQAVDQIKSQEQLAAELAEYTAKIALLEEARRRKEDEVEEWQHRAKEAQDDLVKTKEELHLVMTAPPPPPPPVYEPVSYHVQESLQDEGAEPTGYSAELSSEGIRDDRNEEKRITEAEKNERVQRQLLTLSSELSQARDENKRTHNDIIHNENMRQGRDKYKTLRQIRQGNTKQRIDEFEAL

What was measured:
Assay in all cases: proximity labelling; BioID: HeLa S3 transfected with mycBirA*-CLIC4 (WT or C35A), 50 uM biotin for 12 h, arrested at monopolar cytokinesis; streptavidin pull-down, on-bead tryptic digestion, LC-MS/MS; proteins found in both replicates and not in the untransfected control
[1] = target: mycBirA*-CLIC4-WT (human) (UniProt Q9Y696)
[2] = target: mycBirA*-CLIC4-C35A (human) (UniProt Q9Y696)
[3] = target: mycBirA*-CLIC4-C35A (human) (UniProt Q9Y696); remark: listed apart in the source
[4] = target: mycBirA*-CLIC4-WT (human) (UniProt Q9Y696); remark: listed apart in the source

Row | Molecule | binding [1] | binding [2] | binding [3] | binding [4]
1 | SLC7A5 (from UniProt Q01650 1-507) | binds | no binding |  | 
2 | SLC25A3 (protein, UniProt Q00325 50-362) AVEEQYSCDYGSGRFFILCGLGGIISCGTTHTALVPLDLVKCRMQVDPQKYKGIFNGFSVTLKEDGVRGLAKGWAPTFLGYSMQGLCKFGFYEVFKVLYSNMLGEENTYLWRTSLYLAASASAEFFADIALAPMEAAKVRIQTQPGYANTLRDAAPKMYKEEGLKAFYKGVAPLWMRQIPYTMMKFACFERTVEALYKFVVPKPRSECSKPEQLVVTFVAGYIAGVFCAIVSHPADSVVSVLNKEKGSSASLVLKRLGFKGVWKGLFARIIMIGTLTALQWFIYDSVKVYFRLPRPPPPEMPESLKKKLGLTQ |  |  | no binding | binds
3 | SLC13A3 (protein, UniProt Q8WWT9 1-602) MAALAAAAKKVWSARRLLVLLFTPLALLPVVFALPPKEGRCLFVILLMAVYWCTEALPLSVTALLPIVLFPFMGILPSNKVCPQYFLDTNFLFLSGLIMASAIEEWNLHRRIALKILMLVGVQPARLILGMMVTTSFLSMWLSNTASTAMMLPIANAILKSLFGQKEVRKDPSQESEENTAAVRRNGLHTVPTEMQFLASTEAKDHPGETEVPLDLPADSRKEDEYRRNIWKGFLISIPYSASIGGTATLTGTAPNLILLGQLKSFFPQCDVVNFGSWFIFAFPLMLLFLLAGWLWISFLYGGLSFRGWRKNKSEIRTNAEDRARAVIREEYQNLGPIKFAEQAVFILFCMFAILLFTRDPKFIPGWASLFNPGFLSDAVTGVAIVTILFFFPSQRPSLKWWFDFKAPNTETEPLLTWKKAQETVPWNIILLLGGGFAMAKGCEESGLSVWIGGQLHPLENVPPALAVLLITVVIAFFTEFASNTATIIIFLPVLAELAIRLRVHPLYLMIPGTVGCSFAFMLPVSTPPNSIAFASGHLLVKDMVRTGLLMNLMGVLLLSLAMNTWAQTIFQLGTFPDWADMYSVNVTALPPTLANDTFRTL |  |  | no binding | binds
4 | anillin (protein, UniProt Q9NQW6 1-1124) MDPFTEKLLERTRARRENLQRKMAERPTAAPRSMTHAKRARQPLSEASNQQPLSGGEEKSCTKPSPSKKRCSDNTEVEVSNLENKQPVESTSAKSCSPSPVSPQVQPQAADTISDSVAVPASLLGMRRGLNSRLEATAASSVKTRMQKLAEQRRRWDNDDMTDDIPESSLFSPMPSEEKAASPPRPLLSNASATPVGRRGRLANLAATICSWEDDVNHSFAKQNSVQEQPGTACLSKFSSASGASARINSSSVKQEATFCSQRDGDASLNKALSSSADDASLVNASISSSVKATSPVKSTTSITDAKSCEGQNPELLPKTPISPLKTGVSKPIVKSTLSQTVPSKGELSREICLQSQSKDKSTTPGGTGIKPFLERFGERCQEHSKESPARSTPHRTPIITPNTKAIQERLFKQDTSSSTTHLAQQLKQERQKELACLRGRFDKGNIWSAEKGGNSKSKQLETKQETHCQSTPLKKHQGVSKTQSLPVTEKVTENQIPAKNSSTEPKGFTECEMTKSSPLKITLFLEEDKSLKVTSDPKVEQKIEVIREIEMSVDDDDINSSKVINDLFSDVLEEGELDMEKSQEEMDQALAESSEEQEDALNISSMSLLAPLAQTVGVVSPESLVSTPRLELKDTSRSDESPKPGKFQRTRVPRAESGDSLGSEDRDLLYSIDAYRSQRFKETERPSIKQVIVRKEDVTSKLDEKNNAFPCQVNIKQKMQELNNEINMQQTVIYQASQALNCCVDEEHGKGSLEEAEAERLLLIATGKRTLLIDELNKLKNEGPQRKNKASPQSEFMPSKGSVTLSEIRLPLKADFVCSTVQKPDAANYYYLIILKAGAENMVATPLASTSNSLNGDALTFTTTFTLQDVSNDFEINIEVYSLVQKKDPSGLDKKKKTSKSKAITPKRLLTSITTKSNIHSSVMASPGGLSAVRTSNFALVGSYTLSLSSVGNTKFVLDKVPFLSSLEGHIYLKIKCQVNSSVEERGFLTIFEDVSGFGAWHRRWCVLSGNCISYWTYPDDEKRKNPIGRINLANCTSRQIEPANREFCARRNTFELITVRPQREDDRETLVSQCRDTLCVTKNWLSADTKEERDLWMQKLNQVLVDIRLWQPDACYKPIGKP |  |  | no binding | 
5 | GP1BB (protein, UniProt P13224 26-206) CPAPCSCAGTLVDCGRRGLTWASLPTAFPVDTTELVLTGNNLTALPPGLLDALPALRTAHLGANPWRCDCRLVPLRAWLAGRPERAPYRDLRCVAPPALRGRLLPYLAEDELRAACAPGPLCWGALAAQLALLGLGLLHALLLVLLLCRLRRLRARARARAAARLSLTDPLVAERAGTDES |  |  | no binding | binds

Second part, the molecule after the results:

Row | binding [1] | binding [2] | binding [3] | binding [4] | Molecule
6 | no binding |  |  |  | RhoA (from UniProt P61586 1-193)
7 | binds | no binding |  |  | ALIX (from UniProt Q8WUM4 1-868)
8 | binds | no binding |  |  | KIF11 (from UniProt P52732 1-1056)
9 |  | no binding |  |  | ezrin (from UniProt P15311 1-586)
10 |  |  | no binding | binds | Protocadherin alpha-9 (protein, UniProt Q9Y5H5 30-950) QLHYSVPEEAEHGTFVGRIAQDLGLELAELVPRLFQLDSKGRGDLLEVNLQNGILFVNSRIDREELCGRSAECSIHLEVIVDRPLQVFHVDVEVKDINDNPPVFPATQKNLFIAESRPLDSRFPLEGASDADIGENALLTYRLSPNEYFFLDVPTSNQQVKPLGLVLRKLLDREETPELHLLLTATDGGKPELTGTVQLLITVLDNNDNAPVFDRTLYTVKLPENVSIGTLVIHPNASDLDEGLNGDIIYSFSSDVSPDIKSKFHMDPLSGAITVIGHMDFEESRAHKIPVEAVDKGFPPLAGHCTLLVEVVDVNDNAPQLTIKTLSVPVKEDAQLGTVIALISVIDLDADANGQVTCSLTPHVPFKLVSTYKNYYSLVLDRALDRESVSAYELVVTARDGGSPSLWATARVSVEVADVNDNAPAFAQSEYTVFVKENNPPGCHIFTVSARDADAQENALVSYSLVERRLGERSLSSYVSVHAESGKVYALQPLDHEELELLQFQVSARDAGVPPLGSNVTLQVFVLDENDNAPALLTPRMRGTDGAVSEMVLRSVGAGVVVGKVRAVDADSGYNAWLSYELQPETASASIPFRVGLYTGEISTTRALDETDAPRQRLLVLVKDHGEPALTATATVLVSLVESGQAPKSSSRASVGATGPEVTLVDVNVYLIIAICAVSSLLVLTLLLYTVLRCSAMPTEGECAPGKPTLVCSSAVGSWSYSQQRRQRVCSGEGKQKTDLMAFSPGLSPCAGSTERTGEPSASSDSTGKPRQPNPDWRYSASLRAGMHSSVHLEEAGILRAGPGGPDQQWPTVSSATPEPEAGEVSPPVGAGVNSNSWTFKYGPGNPKQSGPGELPDKFIIPGSPAIISIRQEPTNSQIDKSDFITFGKKEETKKKKKKKKGNKTQEKKEKGNSTTDNSDQ

Read-outs that look alike come from different tables or passages of the source. These are yes or no findings as the source states them, for the method shown. Binding seen in cells or lysates may run through a third protein. A yes stands for co-enrichment or nearness to the bait. Other partners may have been found. For some assays here: No binding means not detected with the bait.
